Test results from the supplement of paper PMC3334620.
In all, about 33,000 sequences were measured (“E-score (-0.5 to 0.5)”: median about -0.0034, highest 2% from about 0.25 on). Some of the results follow.

Each sequence was assayed against T1, Yap3 (UniProt P38749) (assay: PBM E-score (8-mer binding enrichment) (E-score (-0.5 to 0.5)); higher = stronger / more preferred TF binding). Details: protein concentration: 100 nM; construct: GST-full length.
T1 sequence: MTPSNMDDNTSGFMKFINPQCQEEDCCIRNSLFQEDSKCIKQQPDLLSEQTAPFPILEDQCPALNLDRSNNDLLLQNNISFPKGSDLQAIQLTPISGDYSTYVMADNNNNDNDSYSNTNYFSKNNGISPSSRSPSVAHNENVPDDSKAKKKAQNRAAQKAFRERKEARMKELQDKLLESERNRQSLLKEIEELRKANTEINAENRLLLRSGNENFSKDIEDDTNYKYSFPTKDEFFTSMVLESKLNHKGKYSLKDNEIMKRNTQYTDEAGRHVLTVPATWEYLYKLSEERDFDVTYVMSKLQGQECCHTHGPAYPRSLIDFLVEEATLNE
Outline: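 The E-score, a modified Wilcoxon-Mann-Whitney statistic, was computed by the Universal PBM Analysis Suite for every ungapped eight-base word pooled with its reverse complement. Scans behind it were normalised with masliner after bound GST-tagged yeast transcription factors were detected with fluorescent anti-GST. The proteins, at about 100-200 nM, had been applied to universal all-10-mer Agilent arrays made double-stranded by primer extension.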

Sequence | PBM E-score
CGTCCAAG | -0.0403
TGTCTAAA | 0.148
ACCCACAC | 0.0424
ATCCCAAG | -0.0397
GGGCGCTA | -0.249
CATAGATG | -0.138
GGAGAGCA | -0.156
GAGGGCGC | -0.238
GAGTTAAA | 0.0783
GGAAGGAC | -0.238
GACGCAGA | 0.0272
CGTGGAGC | 0.00438
CAGGAATG | -0.102
ATCCGTAA | 0.0684
ACAAGGCG | -0.0349
TCGCGCAA | 0.209
TTAAATAA | 0.155
GGATAGGA | 0.149
ACTTGGAT | 0.184
TGAGTAAA | 0.161
GAGCAGAA | -0.0517
CGCGCCTA | 0.16
CATGGTCG | -0.152
GGCAACCC | -0.255
CCTAAGAC | -0.162

Sequence | PBM E-score
AGGCGGCA | -0.238
AACTCGGG | -0.175
ACCCGCGA | 0.124
AGATGTCG | -0.0538
AGTTGTCG | 0.0191
ACTATGCT | 0.141
GAAATGGA | 0.139
CAACACTA | 0.159
AACACATT | 0.154
TATCAGAA | 0.0756
CTGCAGTC | -0.091
TCCGACCA | -0.0892
AATATAGT | 0.223
ATATGAAA | 0.234
ATAATTGG | 0.165
GTATTATA | 0.329
AGACTATG | -0.0546
ATAACCGG | -0.0881
ATGAGTTC | -0.0426
TGGTAACA | 0.109
GAAAACGA | 0.00196
CTCAGAGC | -0.152
AAAAAAAT | 0.226
GAGAAAAC | -0.00454
AGAGTAGC | -0.168

Sequence | PBM E-score
AAATTACC | 0.235
ACTTAAGA | 0.0692
CCGTCTGA | -0.0809
CCGTTTGA | -0.087
GTGCGGCA | -0.0567
ACAATAGC | -0.017
ACGGTATA | 0.0307
GAGGGAAC | -0.154
GAGGTAAA | -0.0475
AACGTGTC | -0.0769
GGAGAGCC | -0.234
TCAGGAGA | 0.11
CCGTAACG | -0.137
GGAACAAC | 0.157
CCGCTCAC | -0.123
GCTTACAC | -0.0515
ACGTTGGG | -0.0761
ATCCTGCC | -0.0423
CCATGAAG | -0.22
ATAGACGA | 0.192
AAGTGAAA | 0.197
ACTATTGC | 0.083
CTACAACA | 0.0611
GCGCACTA | 0.107
GCGCGCCC | -0.129

A run of entries from further up:
Sequence | PBM E-score
ATCCTGCC | -0.0423
CCATGAAG | -0.22
ATAGACGA | 0.192

Next results follow:

Sequence | PBM E-score
CGATGACA | 0.134
CTGGCGGA | -0.231
AGGATGTC | -0.0743
GAAACATA | 0.203
AGTTCAGA | -0.0786
CGCTCACA | -0.0758
AGGACCTG | -0.234
ATCAGCTA | 0.0675
CTAGCCCA | -0.156
ACACGGAT | 0.105
CGAGTGTA | -0.0629
CGCGAGTC | -0.101
CACCGCCC | -0.14
CTTGCTGA | -0.018
CCTATAGG | -0.221
AAGCTTCA | -0.0747
ACAATACT | 0.237
CTAGGACA | 0.0746
AACGTTGC | 0.0725
AGCAGCGA | 0.0396
ACGACATA | -0.0021
CTTAATCA | 0.166
AAACGGGT | 0.019
GTAAGGGA | -0.00155
GCAAACCC | -0.166

Sequence | PBM E-score
CGCGGCAC | 0.0242
AAAATTCC | 0.0775
GTTTCCCA | 0.128
GATGCGAC | -0.146
CACGAAGC | 0.013
ACTTGCCT | -0.106
GCTCAACA | -0.0503
AAGCGACT | 0.00285
ATGACAAC | 0.189
GAAACGTA | 0.162
CCGAGGAC | -0.141
GAACAGCA | 0.104
ACAGTCGT | 0.0107
GTGGCGAA | -0.0471
AGGACCTC | -0.0741
GGTTGTCA | 0.078
AAGACTCT | 0.0514
TGCATAAA | 0.0703
CCGACTTC | -0.0421
ACGGGGTA | -0.251
AGTTCCGA | 0.045
ACTTCGTC | -0.0104
GCATTTGA | 0.0726
CTACCACA | -0.0927
CATGGCGA | 0.00993

Sequence | PBM E-score
ATGTTGGG | -0.109
ATATGACA | 0.166
CCACTCAA | 0.115
CCGCCTGC | -0.278
ATTCGACA | -0.0426
AGGACGGC | -0.178
AGCCGCGG | -0.0639
ACACCTTC | 0.0874
GCTAGGCA | -0.242
GGGGGAGA | -0.121
CCAGCTGA | 0.0871
CATAAAAC | 0.0691
AGGAAGGA | -0.218
CGGGTTCC | -0.151
AACTGAAC | -0.0163
AACCCTTA | 0.224
TACAGCAA | 0.0775
CTACGCAG | -0.0993
CGTCTGGC | -0.0378
AAACGGGG | -0.058
ATACACAA | 0.136
CCGGCAGC | -0.241
AGGCTCCG | 0.0437
ATCGCAGC | -0.0499
GCTGTAAA | -0.00901

Sequence | PBM E-score
TCACAACA | 0.138
GAATTTAA | 0.118
GTCGCCAA | -0.0746
GATATTGA | 0.15
TCGAGTCA | -0.126
TAGAAACA | 0.105
AGGTACAG | -0.00238
CATCTGTA | 0.0164
AGTGGCTC | -0.0709
AAGAACTA | 0.115
CACCAACA | -0.0286
CGTCTTAG | -0.335
AACTCAGG | -0.0637
CGCTGTAG | -0.0649
ATAGCAGG | -0.0116
ACGCGGAG | -0.0326
CGGTCCCC | -0.316
GACCAGAC | -0.179
GGGCCGTA | -0.0817
AGGAGATA | 0.001
GCCTCTGA | -0.174
AAGAGTCC | -0.24
ATTTAGGA | 0.0424
CAGGCACC | -0.307
ATAATGAA | 0.25

Sequence | PBM E-score
AATAATTC | 0.263
ATCCCTGC | -0.206
AAATTAGG | 0.196
AGGACTAC | -0.137
ACCCAGAA | 0.158
CCGCTCTC | -0.26
ACATGCCA | 0.0349
CTCGTCAG | -0.00282
TGACGTAA | 0.368
AGGATTTG | 0.0994
CGCCTTGC | -0.108
ACAAAAGA | 0.169
GAGCGGTA | -0.123
CTTCGTCC | -0.13
AACCATCT | -0.0615
AGTTTAGG | -0.142
CACGATGC | -0.221
ATGGGTAC | 0.028
TAAAGCGA | 0.15
TAAATTTA | 0.26
CGATAATA | 0.131
GATCACTA | -0.0326
AACGTCCG | -0.0404
TCTTGTCA | -0.0704
CGTCCGTC | -0.228

Reformatted as a markdown table: entries from further up

| Sequence | PBM E-score |
| --- | --- |
| CCGTCTGA | -0.0809 |
| CCGTTTGA | -0.087 |

(further entries)

Sequence | PBM E-score
AGTCCGCA | -0.106
CACTCCCA | -0.0497
AACTAAAA | 0.148
AAACTACG | 0.0264
TGGTGTAA | 0.0619
ATTACAAT | 0.125
ATTCGTCG | 0.0261
AACGTATA | 0.222
CGCATGAG | -0.114
GGACTACA | -0.0458
GCTGATAA | 0.044
CGTTCGAA | 0.253
AATGCAGA | 0.0589
CCCCTCGC | -0.261
CATAGATC | -0.0584
CGGAAAAC | 0.101
GATCACCA | 0.00924
ACGCAACA | 0.0884
CACCAGCA | -0.0503

A different layout for part of the listing above.
Sequence	PBM E-score
CCCCTCGC	-0.261
CATAGATC	-0.0584
